Measured values: PubChem BioAssay AID328 (DTP/NCI, 2004)
The list does not hold the whole screen: it gathers tests that were run many times, whatever their T/C, doses with no T/C, and many T/C values between a quarter and a half above the control. Other doses and runs of a compound stand elsewhere. T/C: endpoint of the treated group in % of that of the vehicle group. Some entries give survivors of the animals treated and no T/C: the source files T/C as zero there, which appears to mark a toxic dose or a test without result, not a measured value. Some doses without a T/C left all or most animals alive at the check, yet need not have been tolerated: the source hardly ever lists a survival T/C far under the control, and the zero likely stands for such cases as well. Counts of survivors are from the toxicity check (mostly the fifth day) where no day follows; animals may have died later. Schedules are NCI's codes, read here as Q, the interval in days (D) or hours (H), X, the number of doses. Some schedule codes hold Z or #, which are not explained here. Some structures stand for samples that the source files as different forms (salt, stereo form or complex); doses refer to the form tested. Some entries were tested several times; their values stand side by side, smallest first. Counts like (3×) count equal records among those shown. For survival time, this PubChem deposit counts one and a half times the control or more as active, and values a quarter to a half above the control carry no call in these data; other NCI protocols may use other cut-offs. Some T/C values are followed by the survivors on the day toxicity was checked, most often the fifth; without a count, all were alive then.

Test system: BDF1 mice, P388 leukemia ip, median survival T/C
Assay: NCI In Vivo Anticancer Drug Screen. Data for tumor model P388 Leukemia (intraperitoneal) in B6D2F1 (BDF1) mice
Settings: T/C endpoint: median survival time, higher T/C = longer survival
In short: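 T/C = treated-group survival ÷ vehicle-control survival; tumour transplanted into mice before dosing.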

[1] = dose: 1.5 mg/kg/injection, schedule: Q01DX010 (ip), vehicle: saline
[2] = dose: 2.0 mg/kg/injection, schedule: Q01DX010 (ip), vehicle: saline

## CO[C@H](C(=O)[C@@H](O)[C@@H](C)O)[C@@H]1Cc2cc3cc(OC4CC(OC5CC(O)C(O)C(C)O5)C(O)C(C)O4)c(C)c(O)c3c(O)c2C(=O)[C@H]1OC1CC(OC2CC(OC3CC(C)(O)C(O)C(C)O3)C(O)C(C)O2)C(O)C(C)O1 (stereo partly drawn)
dose: 1.0 mg/kg/injection, schedule: Q01DX010 (ip), vehicle: saline, run until all animals had died
  T/C: 109, 145, 186, 190, 222, 254 % of control
dose: 1.0 mg/kg/injection, schedule: Q01DX010 (ip), vehicle: water
  survivor count: 0 of 6, 1 of 6, 2 of 6, 3 of 6, 4 of 6, 5 of 6
dose: 1.0 mg/kg/injection, schedule: Q01DX010 (oral), vehicle: water
  survivor count: 5 of 6
dose: 1.0 mg/kg/injection, schedule: Q01DX015 (ip), vehicle: water
  survivor count: 0 of 6
dose: 1.0 mg/kg/injection, schedule: Q02DX005 (ip), vehicle: water
  survivor count: 3 of 6
dose: 1.0 mg/kg/injection, schedule: Q#A X005 (ip), vehicle: saline
  survivor count: 6 of 7
dose: 1.5 mg/kg/injection, schedule: Q01DX005 (ip), vehicle: water
  survivor count: 0 of 8
[1]
  T/C: 130 % of control [5 of 6 alive]
  survivor count: 6 of 7
dose: 1.5 mg/kg/injection, schedule: Q01DX010 (ip), vehicle: water
  survivor count: 0 of 6 and 2 of 6
dose: 1.5 mg/kg/injection, schedule: Q01DX010 (oral), vehicle: water
  survivor count: 1 of 6
dose: 1.5 mg/kg/injection, schedule: Q01DX015 (ip), vehicle: water
  survivor count: 1 of 6
dose: 1.5 mg/kg/injection, schedule: Q02DX005 (ip), vehicle: water
  survivor count: 3 of 6
dose: 2.0 mg/kg/injection, schedule: Q01DX001 (im), vehicle: water
  survivor count: 2 of 4
dose: 2.0 mg/kg/injection, schedule: Q01DX001 (ip), vehicle: saline
  survivor count: 4 of 10
dose: 2.0 mg/kg/injection, schedule: Q01DX001 (ip), vehicle: water
  survivor count: 0 of 4
dose: 2.0 mg/kg/injection, schedule: Q01DX005 (ip), vehicle: saline
  survivor count: 0 of 10
dose: 2.0 mg/kg/injection, schedule: Q01DX009 (ip), vehicle: clinical formulation
  survivor count: 1 of 6
dose: 2.0 mg/kg/injection, schedule: Q01DX009 (ip), vehicle: saline
  survivor count: 0 of 10 (2×)
[2]
  T/C: 86 % of control [4 of 6 alive]
  survivor count: 1 of 7, 2 of 10, 2 of 6, 3 of 6, 6 of 10, 9 of 10, 10 of 10
dose: 2.0 mg/kg/injection, schedule: Q01DX010 (oral), vehicle: water
  survivor count: 1 of 6
dose: 2.0 mg/kg/injection, schedule: Q02DX005 (ip), vehicle: water
  survivor count: 3 of 6
dose: 2.0 mg/kg/injection, schedule: Q04DX003 (ip), vehicle: saline
  survivor count: 6 of 10 and 5 of 7
dose: 2.0 mg/kg/injection, schedule: Q#A X005 (ip), vehicle: saline
  survivor count: 1 of 7
dose: 2.5 mg/kg/injection, schedule: Q01DX010 (oral), vehicle: water
  survivor count: 5 of 6
dose: 3.0 mg/kg/injection, schedule: Q01DX001 (ip), vehicle: water
  survivor count: 0 of 4
dose: 3.0 mg/kg/injection, schedule: Q01DX010 (ip), vehicle: saline
  survivor count: 0 of 7 and 2 of 6
dose: 3.0 mg/kg/injection, schedule: Q04DX003 (ip), vehicle: water
  survivor count: 2 of 8
dose: 4.0 mg/kg/injection, schedule: Q01DX001 (ip), vehicle: saline
  survivor count: 0 of 10 and 0 of 7
dose: 4.0 mg/kg/injection, schedule: Q04DX003 (ip), vehicle: saline
  survivor count: 0 of 10 and 1 of 7
dose: 6.0 mg/kg/injection, schedule: Q01DX010 (ip), vehicle: saline
  survivor count: 0 of 6 and 0 of 7
dose: 8.0 mg/kg/injection, schedule: Q01DX001 (ip), vehicle: saline
  survivor count: 0 of 7
dose: 8.0 mg/kg/injection, schedule: Q04DX003 (ip), vehicle: saline
  survivor count: 0 of 7
dose: 16.0 mg/kg/injection, schedule: Q01DX001 (ip), vehicle: saline
  survivor count: 0 of 7
dose: 100.0 mg/kg/injection, schedule: Q01DX010 (ip), vehicle: water
  survivor count: 6 of 6
dose: 16.3 micrograms/kg/injection, schedule: Q03HX008 (ip), vehicle: saline
  survivor count: 6 of 10
dose: 16.3 micrograms/kg/injection, schedule: Q04DX024 (ip), vehicle: saline
  survivor count: 5 of 10
dose: 31.3 micrograms/kg/injection, schedule: Q03HX008 (ip), vehicle: saline
  survivor count: 3 of 10
dose: 31.3 micrograms/kg/injection, schedule: Q04DX024 (ip), vehicle: saline
  survivor count: 2 of 10
dose: 62.5 micrograms/kg/injection, schedule: Q03HX008 (ip), vehicle: saline
  survivor count: 0 of 10
dose: 62.5 micrograms/kg/injection, schedule: Q04DX024 (ip), vehicle: saline
  survivor count: 0 of 10
dose: 216.0 micrograms/kg/injection, schedule: Q01DX005 (ip), vehicle: water
  T/C: 132 % of control
dose: 250.0 micrograms/kg/injection, schedule: Q01DX010 (ip), vehicle: saline
  T/C: 127 % of control
dose: 360.0 micrograms/kg/injection, schedule: Q01DX005 (ip), vehicle: water
  T/C: 131 % of control
dose: 500.0 micrograms/kg/injection, schedule: Q01DX010 (ip), vehicle: saline
  T/C: 145 % of control
dose: 600.0 micrograms/kg/injection, schedule: Q01DX005 (ip), vehicle: water
  T/C: 143 % of control
dose: 1000.0 micrograms/kg/injection, schedule: Q01DX005 (ip), vehicle: water
  T/C: 130 % of control [7 of 8 alive]
